Some of these results come from one statement about several compounds together.
Biological target: T1, human P2X7 receptor (Homo sapiens, UniProt Q99572)
T1 construct: expressed in transfected cells; host or cells: HEK293
T1 sequence (Q99572 1-595): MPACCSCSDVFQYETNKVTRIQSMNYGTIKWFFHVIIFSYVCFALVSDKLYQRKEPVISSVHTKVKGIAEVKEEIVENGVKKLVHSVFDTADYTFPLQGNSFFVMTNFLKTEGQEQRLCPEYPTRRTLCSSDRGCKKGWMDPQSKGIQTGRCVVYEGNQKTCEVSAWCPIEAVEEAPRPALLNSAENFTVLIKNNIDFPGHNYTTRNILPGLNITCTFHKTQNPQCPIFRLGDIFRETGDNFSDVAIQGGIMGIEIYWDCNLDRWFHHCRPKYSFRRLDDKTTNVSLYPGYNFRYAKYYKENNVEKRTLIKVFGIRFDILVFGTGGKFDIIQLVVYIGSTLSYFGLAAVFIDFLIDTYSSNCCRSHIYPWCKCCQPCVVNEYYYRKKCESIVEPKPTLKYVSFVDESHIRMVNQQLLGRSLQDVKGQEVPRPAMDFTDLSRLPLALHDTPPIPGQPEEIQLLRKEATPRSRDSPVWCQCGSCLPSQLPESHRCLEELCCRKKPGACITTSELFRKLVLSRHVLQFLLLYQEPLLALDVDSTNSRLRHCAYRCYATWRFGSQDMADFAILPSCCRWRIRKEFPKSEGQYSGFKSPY
Assay: Fluorescent Imaging Plate Reader (FLIPR) Ca Assay
Assay type: cell-based
Details: HEK293 cells expressing human recombinant P2X7 receptors; blocking BzATP (60 μM) responses

Compound | pIC50 for human P2X7 receptor antagonist activity in the FLIPR Ca Assay
Cc1cnn(C)c1CC(=O)NCc1ccc(F)cc1Cl [Example 1, N-[(2-chloro-4-fluorophenyl)methyl]-2-(1,4-dimethyl-1H-pyrazol-5-yl)acetamide] | > 4.7
Cc1cnn(C)c1CC(=O)NCc1cccc(C(F)(F)F)c1Cl [Example 2, N-{[2-chloro-3-(trifluoromethyl)phenyl]methyl}-2-(1,4-dimethyl-1H-pyrazol-5-yl)acetamide] | > 4.7
Cc1cnn(CC(F)(F)F)c1CC(=O)NCc1ccc(F)c(F)c1Cl [Example 3, N-[(2-chloro-3,4-difluorophenyl)methyl]-2-[4-methyl-1-(2,2,2-trifluoroethyl)-1H-pyrazol-5-yl]acetamide] | > 4.7
Cc1cnn(C)c1CC(=O)NCc1ccc(F)c(F)c1Cl [Example 4, N-[(2-chloro-3,4-difluorophenyl)methyl]-2-(1,4-dimethyl-1H-pyrazol-5-yl)acetamide] | > 4.7
Cn1nccc1CC(=O)NCc1cccc(C(F)(F)F)c1Cl [Example 5, N-{[2-chloro-3-(trifluoromethyl)phenyl]methyl}-2-(1-methyl-1H-pyrazol-5-yl)acetamide] | > 4.7
Cn1ncc(Cl)c1CC(=O)NCc1cccc(C(F)(F)F)c1Cl [Example 6, 2-(4-chloro-1-methyl-1H-pyrazol-5-yl)-N-{[2-chloro-3-(trifluoromethyl)phenyl]methyl}acetamide] | > 4.7
Cn1ncc(Br)c1CC(=O)NCc1cccc(C(F)(F)F)c1Cl [Example 7, 2-(4-Bromo-1-methyl-1H-pyrazol-5-yl)-N-{[2-chloro-3-(trifluoromethyl)phenyl]methyl}acetamide] | > 4.7
Cn1ncc(F)c1CC(=O)NCc1cccc(C(F)(F)F)c1Cl [Example 8, N-{[2-chloro-3-(trifluoromethyl)phenyl]methyl}-2-(4-fluoro-1-methyl-1H-pyrazol-5-yl)acetamide] | > 4.7
Cc1cnn(C)c1CC(=O)NCc1cccc2ccccc12 [Example 9] | > 4.7
Cc1cnn(C)c1CC(=O)NCc1ccc(Cl)cc1Cl [Example 10] | > 4.7
Cn1nccc1CC(=O)NCc1ccc(F)cc1Cl [Example 11, N-[(2-chloro-4-fluorophenyl)methyl]-2-(1-methyl-1H-pyrazol-5-yl)acetamide] | > 4.7
Cn1nccc1CC(=O)NCc1ccc(F)c(F)c1Cl [Example 12, N-[(2-chloro-3,4-difluorophenyl)methyl]-2-(1-methyl-1H-pyrazol-5-yl)acetamide] | > 4.7
Cn1nccc1CC(=O)NCc1ccc(Cl)cc1Cl [Example 13, N-[(2,4-dichlorophenyl)methyl]-2-(1-methyl-1H-pyrazol-5-yl)acetamide] | > 4.7
Cn1ncc(Cl)c1CC(=O)NCc1ccc(F)cc1Cl [Example 14, N-[(2-Chloro-4-fluorophenyl)methyl]-2-(4-chloro-1-methyl-1H-pyrazol-5-yl)acetamide] | > 4.7
Cn1ncc(Cl)c1CC(=O)NCc1ccc(F)c(F)c1Cl [Example 15, N-[(2-Chloro-3,4-difluorophenyl)methyl]-2-(4-chloro-1-methyl-1H-pyrazol-5-yl)acetamide] | > 4.7
Cn1ncc(Cl)c1CC(=O)NCc1ccc(Cl)cc1Cl [Example 16, 2-(4-Chloro-1-methyl-1H-pyrazol-5-yl)-N-[(2,4-dichlorophenyl)methyl]acetamide] | > 4.7
Cn1ncc(F)c1CC(=O)NCc1ccc(F)cc1Cl [Example 17, N-[(2-Chloro-4-fluorophenyl)methyl]-2-(4-fluoro-1-methyl-1H-pyrazol-5-yl)acetamide] | > 4.7
Cn1ncc(F)c1CC(=O)NCc1ccc(F)c(F)c1Cl [Example 18, N-[(2-Chloro-3,4-difluorophenyl)methyl]-2-(4-fluoro-1-methyl-1H-pyrazol-5-yl)acetamide] | > 4.7
Cn1ncc(F)c1CC(=O)NCc1ccc(Cl)cc1Cl [Example 19, N-[(2,4-Dichlorophenyl)methyl]-2-(4-fluoro-1-methyl-1H-pyrazol-5-yl)acetamide] | > 4.7
Cn1ncc(I)c1CC(=O)NCc1ccc(Cl)cc1Cl [Example 20, N-[(2,4-Dichlorophenyl)methyl]-2-(4-iodo-1-methyl-1H-pyrazol-5-yl)acetamide] | > 4.7

Source: patent publication US20100056595A1, “Pyrazole Derivatives as P2X7 Modulators” (Glaxo Group Limited, priority 2007, published 2010)
